Source: paper doi:10.1101/2025.04.25.650293
Read-outs that look alike come from different tables or passages of the source. No constants are given. Whether binding was seen depends on the method and setting. For part of these data: In cells and extracts the contact can be indirect. Some results given as binding are weak or reduced against the parent protein; the word gives no strength. For part of these data: Where a sequence is shown, tags or fusion partners need not be part of it.

By UniProt entry, the sequences of proteins in these tests, tags left out.
UniProt Q13547: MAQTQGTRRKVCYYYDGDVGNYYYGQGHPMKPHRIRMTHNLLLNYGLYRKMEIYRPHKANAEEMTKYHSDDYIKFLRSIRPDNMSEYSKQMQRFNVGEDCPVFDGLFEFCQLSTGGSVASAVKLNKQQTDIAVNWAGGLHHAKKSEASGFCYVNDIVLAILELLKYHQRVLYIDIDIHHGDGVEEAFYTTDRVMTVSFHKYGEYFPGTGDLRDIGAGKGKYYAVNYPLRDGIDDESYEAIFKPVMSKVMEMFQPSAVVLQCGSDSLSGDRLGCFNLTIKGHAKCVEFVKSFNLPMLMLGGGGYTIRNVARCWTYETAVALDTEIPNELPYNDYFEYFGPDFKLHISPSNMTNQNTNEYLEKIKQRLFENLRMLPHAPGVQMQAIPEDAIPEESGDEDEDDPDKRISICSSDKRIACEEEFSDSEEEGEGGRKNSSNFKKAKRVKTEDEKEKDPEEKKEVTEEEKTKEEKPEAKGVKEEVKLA

Assays:
[1] = biological target: T1, DLAT (dihydrolipoamide S-acetyltransferase, the PDC E2 subunit) (human (endogenous in 143B)) (UniProt P10515); test: co-IP
T1 sequence: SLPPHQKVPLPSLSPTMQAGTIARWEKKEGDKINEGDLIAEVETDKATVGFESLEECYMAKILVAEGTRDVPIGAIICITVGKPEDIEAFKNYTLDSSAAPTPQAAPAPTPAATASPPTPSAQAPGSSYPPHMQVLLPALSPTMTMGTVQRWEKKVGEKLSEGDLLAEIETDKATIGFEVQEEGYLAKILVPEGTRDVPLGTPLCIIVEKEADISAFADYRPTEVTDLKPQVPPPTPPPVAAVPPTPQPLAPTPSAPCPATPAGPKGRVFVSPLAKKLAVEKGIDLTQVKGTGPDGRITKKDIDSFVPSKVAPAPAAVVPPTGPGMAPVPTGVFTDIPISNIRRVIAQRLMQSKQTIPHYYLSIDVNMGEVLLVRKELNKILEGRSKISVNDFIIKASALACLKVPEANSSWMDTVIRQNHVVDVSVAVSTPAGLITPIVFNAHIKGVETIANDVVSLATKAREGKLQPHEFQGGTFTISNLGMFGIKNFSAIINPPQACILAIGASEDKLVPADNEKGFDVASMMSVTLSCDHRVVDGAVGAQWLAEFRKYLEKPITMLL

[2] = biological target: HDAC1 (human (endogenous in 143B)) (UniProt Q13547); test: co-IP
[3] = biological target: T2, ELMSAN1 (human (endogenous in 143B)) (UniProt Q6PJG2); test: co-IP
T2 sequence: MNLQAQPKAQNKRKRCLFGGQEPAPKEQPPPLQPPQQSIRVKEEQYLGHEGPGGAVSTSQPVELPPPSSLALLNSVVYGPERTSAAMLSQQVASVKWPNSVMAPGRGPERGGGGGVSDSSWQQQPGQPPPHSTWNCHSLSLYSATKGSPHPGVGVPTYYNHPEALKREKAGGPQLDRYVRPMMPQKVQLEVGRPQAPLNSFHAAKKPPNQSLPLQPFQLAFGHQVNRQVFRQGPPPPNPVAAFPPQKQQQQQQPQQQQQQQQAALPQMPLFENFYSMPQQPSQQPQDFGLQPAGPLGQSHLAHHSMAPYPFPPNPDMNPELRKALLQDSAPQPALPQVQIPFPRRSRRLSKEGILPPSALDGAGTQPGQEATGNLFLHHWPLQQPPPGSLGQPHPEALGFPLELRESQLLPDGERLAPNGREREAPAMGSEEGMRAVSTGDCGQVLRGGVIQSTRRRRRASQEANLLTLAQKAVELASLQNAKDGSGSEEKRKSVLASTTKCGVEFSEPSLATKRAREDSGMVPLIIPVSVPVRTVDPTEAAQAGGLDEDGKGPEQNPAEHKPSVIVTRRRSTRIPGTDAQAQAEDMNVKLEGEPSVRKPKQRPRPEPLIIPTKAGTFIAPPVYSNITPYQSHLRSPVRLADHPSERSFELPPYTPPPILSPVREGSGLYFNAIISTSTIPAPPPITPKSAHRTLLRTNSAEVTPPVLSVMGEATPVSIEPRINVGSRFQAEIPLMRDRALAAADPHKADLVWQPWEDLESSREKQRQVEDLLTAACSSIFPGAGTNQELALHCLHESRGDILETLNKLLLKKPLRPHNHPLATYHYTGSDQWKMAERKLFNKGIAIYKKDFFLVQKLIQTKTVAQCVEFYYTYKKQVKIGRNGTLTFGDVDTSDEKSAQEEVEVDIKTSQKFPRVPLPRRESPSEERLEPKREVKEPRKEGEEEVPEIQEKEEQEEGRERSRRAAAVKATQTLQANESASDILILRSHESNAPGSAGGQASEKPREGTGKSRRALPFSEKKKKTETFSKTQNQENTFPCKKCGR

[4] = biological target: T2, ELMSAN1 (human (endogenous in 143B)); test: co-IP; remark: listed apart in the source
[5] = biological target: T3, in vitro translated His-HA-ELMSAN1 (UniProt Q6PJG2); test: pull-down
T3 sequence: T2 sequence

recombinant His-ELMSAN1 = biological target: T4, recombinant His-ELMSAN1 (UniProt Q6PJG2); test: pull-down
T4 sequence: T2 sequence

B1: ELMSAN1 (protein, UniProt Q6PJG2 1-1045)
chain: T2 sequence
[1]
  binding: binds
[2]
  binding: binds

B2: DLAT (dihydrolipoamide S-acetyltransferase, the PDC E2 subunit) (protein, UniProt P10515 87-647)
chain: T1 sequence
[3]
  binding: binds
[4]
  binding: binds

B3: recombinant Glutathione S-transferase (GST)-DLAT (protein, UniProt P10515 87-647)
chain: T1 sequence
[5]
  binding: binds
Recombinant His-ELMSAN1
  binding: binds
